At least one peptide structure holds a part that was inferred or is arguable (an end, a ring closure or a residue). Some compounds share one wording; it may come from a single statement. Ends that are not written are not given here. Peptide text beside a SMILES is read from it.
These compounds were tested on thymocytes from C3H/He mice (assay: IL-1 activity assay (3H-thymidine uptake by thymocytes)). Details: purified IL-1 and HPLC eluate fractions of its API / V8 protease digests.
Format: cell-based

Compound	IL-1 activity
CC(C)[C@H](NC(=O)[C@H](Cc1ccccc1)NC(=O)[C@@H](N)CCCNC(=N)N)C(=O)N[C@@H](Cc1ccccc1)C(=O)N[C@@H](CC(N)=O)C(=O)N[C@@H](CCCCN)C(=O)O [Formula A-4, Arg-Phe-Val-Phe-Asn-Lys] (H-RFVFNK-OH)	showed IL-1 activity
LKALHLQGQDMEQQVVFSMSFVQGEESNDKIPVALGLKEKNLYLSCVLKDDKPTLQLE [Formula V8-11]	showed IL-1 activity
CC[C@H](C)[C@H](NC(=O)[C@H](CCCCN)NC(=O)[C@H](CC(N)=O)NC(=O)[C@H](Cc1ccccc1)NC(=O)[C@@H](NC(=O)[C@H](Cc1ccccc1)NC(=O)[C@H](CCCNC(=N)N)NC(=O)[C@@H](N)CCCCN)C(C)C)C(=O)N[C@@H](CCC(=O)O)C(=O)O [Formula V8-7, Lys-Arg-Phe-Val-Phe-Asn-Lys-Ile-Glu] (H-KRFVFNKIE-OH)	showed IL-1 activity
CC[C@H](C)[C@H](NC(=O)[C@H](CCC(=O)O)NC(=O)[C@@H](NC(=O)[C@H](CCCCN)NC(=O)[C@H](CC(N)=O)NC(=O)[C@H](Cc1ccccc1)NC(=O)[C@@H](NC(=O)[C@H](Cc1ccccc1)NC(=O)[C@H](CCCNC(=N)N)NC(=O)[C@H](CCCCN)NC(=O)[C@H](CCC(=O)O)NC(=O)[C@H](CCSC)NC(=O)[C@H](CCCCN)NC(=O)[C@H](CCCCN)NC(=O)[C@H](CCCCN)NC(=O)[C@@H]1CCCN1C(=O)[C@H](Cc1ccc(O)cc1)NC(=O)[C@@H](N)CC(N)=O)C(C)C)[C@@H](C)CC)C(=O)N[C@@H](CC(N)=O)C(=O)N[C@@H](CC(N)=O)C(=O)N[C@@H](CCCCN)C(=O)O [Formula A-10] (H-NYPKKKMEKRFVFNKIEINNK-OH)	showed IL-1 activity
CC(C)C[C@H](NC(=O)[C@@H](NC(=O)[C@H](CS)NC(=O)[C@H](CC(N)=O)NC(=O)[C@H](CC(C)C)NC(=O)[C@@H](N)CO)[C@@H](C)O)C(=O)N[C@@H](CCCNC(=N)N)C(=O)N[C@@H](CC(=O)O)C(=O)N[C@@H](CO)C(=O)N[C@@H](CCC(N)=O)C(=O)N[C@@H](CCC(N)=O)C(=O)N[C@@H](CCCCN)C(=O)O [Formula A-3, Ser-Leu-Asn-Cys-Thr-Leu-Arg-Asp-Ser-Gln-Gln-Lys] (H-SLNCTLRDSQQK-OH)	showed IL-1 activity

Source: EP0267629A2, “Polypeptides having interleukin-1 activity” (KYOWA HAKKO KOGYO CO., LTD., priority 1986, dated 1988)
